These are yes or no findings as the source states them, for the method shown. Binding seen in cells or lysates may run through a third protein. Here binding means that the protein was enriched with, or labelled near, the bait; the list need not be complete.
Molecular target: β2-adrenergic receptor (UniProt P07550)
Experiment: affinity purification with mass spectrometry; purified Flag-β2AR in rHDL immobilised on M1 anti-Flag resin, occupied by 50 µM BI-167107 (full agonist) or 50 µM carazolol (inverse agonist); adult rat heart cytosol (10 mg/ml, 4 mM CaCl2) overnight at 4°C; eluted with FLAG peptide and EDTA; gel slices, LC-MS; proteins of the M1 resin, empty rHDL and Ni-NTA controls subtracted; hits of either or both samples; only the target purified

B1: PITPNB (protein, UniProt P53812 1-271)
chain: MVLIKEFRVVLPCSVQEYQVGQLYSVAEASKNETGGGEGIEVLKNEPYENDGEKGQYTHKIYHLKSKVPAFVRMIAPEGSLVFHEKAWNAYPYCRTIVTNEYMKDDFFIKIETWHKPDLGTLENVHGLDPNTWKTVEIVHIDIADRSQVEPADYKADEDPALFQSVKTKRGPLGPNWKKELANTPDCPKMCAYKLVTIKFKWWGLQSKVENFIQKQEKRIFTNLHRQLFCWIDKWIDLTMEDIRRMEDETQKELETMRKKGSVRGTSAADA
binding: binds

B2: PLA2G16 (protein, UniProt P53817 1-160)
chain: MPIPEPKPGDLIEIFRPMYSHWAIYVGDGYVIHLAPPSEIPGAGAASIMSALTDKAIVKKELLRDVAGKDKYQVNNKHDKEYTPLPLNKIIQRAEELVGQEVLYRLTSENCEHFVNELRYGVPRSDQVRDAVKVATVTGVGLAALGLIGVMLSRNKKQKQ
binding: binds

B3: RAB5A (protein, UniProt M0RC99 1-215)
chain: MANRGATRPNGPNTGNKICQFKLVLLGESAVGKSSLVLRFVKGQFHEFQESTIGAAFLTQTVCLDDTTVKFEIWDTAGQERYHSLAPMYYRGAQAAIVVYDITNEESFSRAKNWVKELQRQASPNIVIALSGNKADLANKRAVDFQEAQSYADDNSLLFMETSAKTPMNVNEIFMAIAKKLPKNEPQNPGANSARGRGVDLTEPAQPARSQCCSN
binding: binds

B4: CPT2 (protein, UniProt P18886 26-658)
chain: SAVSGPDDYLQHSIVPTMHYQDSLPRLPIPKLEDTMKRYLNAQKPLLDDSQFRRTEALCKNFETGVGKELHAHLLAQDKQNKHTSYISGPWFDMYLTARDSIVLNFNPFMAFNPDPKSEYNDQLTRATNLTVSAVRFLKTLQAGLLEPEVFHLNPSKSDTDAFKRLIRFVPPSLSWYGAYLVNAYPLDMSQYFRLFNSTRIPRPNRDELFTDTKARHLLVLRKGHFYVFDVLDQDGNIVNPLEIQAHLKYILSDSSPVPEFPVAYLTSENRDVWAELRQKLIFDGNEETLKKVDSAVFCLCLDDFPMKDLIHLSHTMLHGDGTNRWFDKSFNLIVAEDGTAAVHFEHSWGDGVAVLRFFNEVFRDSTQTPAITPQSQPAATNSSASVETLSFNLSGALKAGITAAKEKFDTTVKTLSIDSIQFQRGGKEFLKKKQLSPDAVAQLAFQMAFLRQYGQTVATYESCSTAAFKHGRTETIRPASIFTKRCSEAFVRDPSKHSVGELQHMMAECSKYHGQLTKEAAMGQGFDRHLYALRYLATARGLNLPELYLDPAYQQMNHNILSTSTLNSPAVSLGGFAPVVPDGFGIAYAVHDDWIGCNVSSYSGRNAREFLHCVQKCLEDIFDALEGKAIKT
binding: binds

B5: SDHB (protein, UniProt P21913 31-282)
chain: AQTAAAAAPRIKTFAIYRWDPDKAGDKPRMQTYKVDLNKCGPMVLDALIKIKNEIDSTLTFRRSCREGICGSCAMNINGGNTLACTRRIDTDLGKVSKIYPLPHMYVIKDLVPDLSNFYAQYKSIEPYLKKKDESQEGKQQYLQSIEDREKLDGLYECILCACCSTSCPSYWWNGDKYLGPAVLMQAYRWMIDSRDEFTEERLAKLQDPFSLYRCHTIMNCTQTCPKGLNPGKAIAEIKKMMATYKEKRALA
binding: binds

B6: FABP4 (protein, UniProt P70623 1-132)
chain: MCDAFVGTWKLVSSENFDDYMKEVGVGFATRKVAGMAKPNLIISVEGDLVVIRSESTFKNTEISFKLGVEFDEITPDDRKVKSIITLDGGVLVHVQKWDGKSTTIKKRRDGDKLVVECVMKGVTSTRVYERA
binding: binds

B7: PCCA (protein, UniProt P14882 62-737)
chain: SVEYEPKEKTFDKILIANRGEIACRVIKTCRKMGIRTVAIHSDVDASSVHVKMADEAVCVGPAPTSKSYLNMDAIMEAIKKTGAQAVHPGYGFLSENKEFAKCLAAEDVTFIGPDTHAIQAMGDKIESKLLAKRAKVNTIPGFDGVLKDADEAVRIAREIGYPVMIKASAGGGGKGMRIPWDDEETRDGFRFSSQEAASSFGDDRLLIEKFIDNPRHIEIQVLGDKHGNALWLNERECSIQRRNQKVVEEAPSIFLDPETRRAMGEQAVAWPKAVKYSSAGTVEFLVDSQKNFYFLEMNTRLQVEHPVTECITGLDLVQEMILVAKGYPLRHKQEDIPISGWAVECRVYAEDPYKSFGLPSIGRLSQYQEPIHLPGVRVDSGIQPGSDISIYHDPMISKLVTYGSDRAEALKRMEDALDSYVIRGVTHNIPLLREVIINTRFVKGDISTKFLSDVYPDGFKGHMLTPSERDQLLAIASSLFVASQLRAQRFQEHSRVPVIRPDVAKWELSVKLHDEDHTVVASNNGPTFNVEVDGSKLNVTSTWNLASPLLSVNVDGTQRTVQCLSPDAGGNMSIQFLGTVYKVHILTKLAAELNKFMLEKVPKDTSSVLRSPKPGVVVAVSVKPGDMVAEGQEICVIEAMKMQNSMTAGKMGKVKLVHCKAGDTVGEGDLLVELE
binding: binds

B8: ACBD3 (protein, UniProt Q7TNY6 1-526)
chain: MAAQLNVEQLEVSLDGLTLSPDSEERPGAEGAPLQTPPSSPPRDGLGSGTAGQQREPGEAAAEGAAEEARRMEQHWGFGLEELYGLALRFYKIKDGKAFHPTYEEKLKFVALHKQVLLGPYNPDTSPEVGFFDVLGNDRRREWAALGNMSKEDAMVEFVKLLNKCCPLLSAYVASHRIEKEEEEKRRKAEEERRQREEEERERLQKEEEKRKREEEDRLRREEEERRRIEEERLRLEQQKQQIMAALNSQTAVQFQQYAAQQYPGNYEQQQILIRQLQEQHYQQYMQQLYQVQLAQQQAALQKQQEVVVAGASLPASTKVNTAGASDPLPVNGQAKTHTENPEKVLEPEAAEEALENGPKDSLPVIAAPSMWTRPQIKDFKEKIRQDADSVITVRRGEVVTVRVPTHEEGSYLFWEFATDSYDIGFGVYFEWTDSPNAAVSVHVSESSDDEEEEEEENVTCEEKAKKNVNKPLLDEIVPVYRRDCHEEVYAGSHQYPGRGVYLLKFDNSYSLWRSKSVYYRVYYTR
binding: binds

B9: IDH3G (protein, UniProt P41565 40-393)
chain: SSQQTIPPSAKYGGRHTVTMIPGDGIGPELMLHVKSVFRHACVPVDFEEVHVSSNADEEDIRNAIMAIRRNRVALKGNIETNHDLPPSHKSRNNILRTSLDLYANVIHCKSLPGVVTRHKDIDILIVRENTEGEYSSLEHESVAGVVESLKIITKAKSLRIAEYAFKLAQESGRKKVTAVHKANIMKLGDGLFLQCCREVAARYPQITFDSMIVDNTTMQLVSRPQQFDVMVMPNLYGNIVNNVCAGLVGGPGLVAGANYGHVYAVFETATRNTGKSIANKNIANPTATLLASCMMLDHLKLHSYATSIRKAVLASMDNENMHTPDIGGQGTTSQAIQDIIRHIRIINGRAVEA
binding: binds

B10: HK2 (protein, UniProt P27881 1-917)
chain: MIASHMIACLFTELNQNQVQKVDQFLYHMRLSDETLLEISRRFRKEMEKGLGATTHPTAAVKMLPTFVRSTPDGTEHGEFLALDLGGTNFRVLRVRVTDNGLQRVEMENQIYAIPEDIMRGSGTQLFDHIAECLANFMDKLQIKEKKLPLGFTFSFPCHQTKLDESFLVSWTKGFKSSGVEGRDVVDLIRKAIQRRGDFDIDIVAVVNDTVGTMMTCGYDDQNCEIGLIVGTGSNACYMEEMRHIDMVEGDEGRMCINMEWGAFGDDGTLNDIRTEFDREIDMGSLNPGKQLFEKMISGMYMGELVRLILVKMAKAELLFQGKLSPELLTTGSFETKDVSDIEEDKDGIEKAYQILMRLGLNPLQEDCVATHRICQIVSTRSASLCAATLAAVLWRIKENKGEERLRSTIGVDGSVYKKHPHFAKRLHKAVRRLVPDCDVRFLRSEDGSGKGAAMVTAVAYRLADQHRARQKTLESLKLSHEQLLEVKRRMKVEMEQGLSKETHAVAPVKMLPTYVCATPDGTEKGDFLALDLGGTNFRVLLVRVRNGKRRGVEMHNKIYSIPQEVMHGTGEELFDHIVQCIADFLEYMGMKGVSLPLGFTFSFPCQQNSLDQSILLKWTKGFKASGCEGEDVVTLLKEAIHRREEFDLDVVAVVNDTVGTMMTCGYEDPHCEVGLIVGTGSNACYMEEMRNVELVDGEEGRMCVNMEWGAFGDNGCLDDLRTVFDVAVDELSLNPGKQRFEKMISGMYLGEIVRNILIDFTKRGLLFRGRISERLKTRGIFETKFLSQIESDCLALLQVRAILRHLGLESTCDDSIIVKEVCTVVARRAAQLCGAGMAAVVDKIRENRGLDNLKVTVGVDGTLYKLHPHFAKVMHETVRDLAPKCDVSFLESEDGSGKGAALITAVACRIREAGQR
binding: binds

B11: PPM1A (protein, UniProt P20650 1-382)
chain: MGAFLDKPKMEKHNAQGQGNGLRYGLSSMQGWRVEMEDAHTAVIGLPSGLETWSFFAVYDGHAGSQVAKYCCEHLLDHITNNQDFKGSAGAPSVENVKNGIRTGFLEIDEHMRVMSEKKHGADRSGSTAVGVLISPQHTYFINCGDSRGLLCRNRKVHFFTQDHKPSNPLEKERIQNAGGSVMIQRVNGSLAVSRALGDFDYKCVHGKGPTEQLVSPEPEVHDIERSEEDDQFIILACDGIWDVMGNEELCDFVRSRLEVTDDLEKVCNEVVDTCLYKGSRDNMSVILICFPNAPKVSAEAVKKEAELDKYLENRVEEIIKKQGEGVPDLVHVMRTLASENIPSLPPGGELASKRNVIEAVYNRLNPYKNDDTDSASTDDMW
binding: binds

B12: IDH3A (protein, UniProt Q99NA5 28-366)
chain: AGGVQTVTLIPGDGIGPEISASVMKIFDAAKAPIQWEERNVTAIQGPGGKWMIPPEAKESMDKNKMGLKGPLKTPIAAGHPSMNLLLRKTFDLYANVRPCVSIEGYKTPYTDVNIVTIRENTEGEYSGIEHVIVDGVVQSIKLITEGASKRIAEFAFEYARNNHRSNVTAVHKANIMRMSDGLFLQKCREVAENCKDIKFNEMYLDTVCLNMVQDPSQFDVLVMPNLYGDILSDLCAGLIGGLGVTQSGNIGANGVAIFESVHGTAPDIAGKDMANPTALLLSAVMMLRHMGLFDHAAKIEAACFATIKDGKSLTKDLGGNSKCSDFTEEICRRVKDLD
binding: binds

B13: COQ3 (protein, UniProt Q63159 87-345)
chain: STSQTVDSKEVKTFQALAHSWWDEQGKFAPLHSMNDLRVPFIRDNLLKTSTNHDPGKPLSGMKILDVGCGGGLLTEPLGRLGASVVGIDPVAENIKIAQHHKSFDPVLDKRIQYRVCSLEETLNENAECFDAVVASEVVEHVNNLEMFIQCCYQVLKPGGSLFITTVNKTQLSYVLGIVFSEQIAGIVPKGTHTWEKFVSPEKLESILEPNGLSVETVAGMVYNPFSGYWHWTENTSLNYAAHAVRARAQEHLEPAESA
binding: binds

Source: PMC3556083
